Measured values taken from PMC11472388 (ACS Medicinal Chemistry Letters, 2024).
Several values for one entry are separate records, joined by “and”; a condition that tells them apart may be missing. Equal values may be shown once. Read-outs that look alike come from different tables or passages of the source.

Legend:
[1] = system: male and female CD-1 mice; assay: Tail flick (TF) antinociception; type: in vivo; details: for ED50: Mus musculus, sc
Source text: using the microdialysis probe recovery rate. All data are presented as mean ± SEM.
For the dialysate, the mean
Animals: Male and female CD-1 and DBA mice, 21–29 g at testing, were obtained from Charles River (Wilmington, MA) and housed in a 12-h light/dark cycle. All experiments were approved by the Tulane Institutional Animal Care and Use Committee and conducted according to the NIH Guide for the Care and Use of Laboratory Animals. All efforts were made to minimize animal suffering and to reduce the number of animals used.
Tail Flick (TF): CD1 mice were used for this test. The latency to withdraw the tail from a heat source was automatically measured (IITC, Woodland Hills, CA). […]
with a cutoff time of 9 s to prevent tissue damage. Percent Maximum Possible Effect (%MPE) was determined as [(latency-baseline latency)/(9-baseline latency)]*100. […]
(§1) calculated and used as the peak response for determining ED50’s. Initial tests, based on previous studies with ZH853, were 3h in duration.
(§2) Additional subgroups (n = 4-5) were therefore tested for 5h. […] For the time course (Figure 3) […]
(§3) animals were used. Duration of antinociception was assessed using both the area under the curve (AUC) and duration of antinociception, calculated as the time from the first to the last time point greater than or equal to 50% MPE.
(§4) Hot Plate (HP) Test: This test reflects a supraspinally organized complex response, 6 and was used to assess the CNS activation of antinociception by peripherally (s.c.) administered […]
(§5) to reduce test compound requirements. The HP apparatus (IITC, Woodland Hills, CA) was set to 55.5°C, a temperature that elicited a response after 7-9 sec. Three baseline HP latencies to rapidly lift, lick, or shake the hind paws were taken prior to drug injection. Mice were removed from the HP after a maximum of 30 sec. Mice were injected with several analogs (0–5.6 mg/kg s.c.) and tested from 30–300 min after injection.
(%MPE) as described for TF.

male and female DBA mice = assay: animal or person; type: in vivo
Method: as §1, §2, §3, §4, §5
(%MPE) as described for TF. […]
each of those respective times was therefore calculated and used as the peak response for determining ED50’s. These values were used to calculate area under the curve (AUC). The duration of antinociception greater than 50% MPE was calculated as with TF.
Figure S3. Microdialysis and Pharmacokinetics Experiment Scheme.
Scheme depicts catheterization and microdialysis of the rat striatum. […]
endomorphin-1 analog (10 mg/kg; i.v.) ZH853 = ZH853•HCl (10 mg/kg; i.v.); aCSF = artificial cerebrospinal fluid. Created with BioRender.com (Agreement number MH26RXD2YP).
(1 picture or pasted object on this page, not shown here)

CN1CC[C@]23c4c5ccc(O)c4O[C@H]2[C@@H](O)C=C[C@H]3[C@H]1C5 [morphine]
ED50 ([1]; male CD-1 mice, %MPE at peak response, read-out: Tail flick ED50 Male): 1.25 ± 0.11 mg/kg
ED50 ([1]; mean of male and female, read-out: Tail flick ED50 Mean M&F): 4.22 µmol/kg and 1.41 mg/kg
Tail flick Potency vs control ZH853/analog ([1]; ratio of ED50, mg/kg basis): 1.43
Tail flick Potency vs control ZH853/analog ([1]; ratio of ED50, μmol/kg basis): 0.55
ED50 (male and female DBA mice; Mus musculus, sc, mean of male and female, read-out: Hot plate ED50 Mean M&F): 7.71 µmol/kg and 2.57 mg/kg
Hot plate Potency vs control ZH853/analog (male and female DBA mice; ratio of ED50, mg/kg basis): 0.85
Hot plate Potency vs control ZH853/analog (male and female DBA mice; ratio of ED50, μmol/kg basis): 0.33
